Paper PMC4232348

Amino acid sequences for entries named in this document (tags omitted). A change or cut given only in a name is not applied to a line headed by its entry.
UniProt O18333: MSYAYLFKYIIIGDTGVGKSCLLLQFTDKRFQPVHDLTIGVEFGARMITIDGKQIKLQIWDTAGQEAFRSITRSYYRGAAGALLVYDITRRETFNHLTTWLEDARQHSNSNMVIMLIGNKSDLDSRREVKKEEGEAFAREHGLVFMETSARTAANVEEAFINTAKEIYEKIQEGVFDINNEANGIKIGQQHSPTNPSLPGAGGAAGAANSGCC
UniProt Q9W060: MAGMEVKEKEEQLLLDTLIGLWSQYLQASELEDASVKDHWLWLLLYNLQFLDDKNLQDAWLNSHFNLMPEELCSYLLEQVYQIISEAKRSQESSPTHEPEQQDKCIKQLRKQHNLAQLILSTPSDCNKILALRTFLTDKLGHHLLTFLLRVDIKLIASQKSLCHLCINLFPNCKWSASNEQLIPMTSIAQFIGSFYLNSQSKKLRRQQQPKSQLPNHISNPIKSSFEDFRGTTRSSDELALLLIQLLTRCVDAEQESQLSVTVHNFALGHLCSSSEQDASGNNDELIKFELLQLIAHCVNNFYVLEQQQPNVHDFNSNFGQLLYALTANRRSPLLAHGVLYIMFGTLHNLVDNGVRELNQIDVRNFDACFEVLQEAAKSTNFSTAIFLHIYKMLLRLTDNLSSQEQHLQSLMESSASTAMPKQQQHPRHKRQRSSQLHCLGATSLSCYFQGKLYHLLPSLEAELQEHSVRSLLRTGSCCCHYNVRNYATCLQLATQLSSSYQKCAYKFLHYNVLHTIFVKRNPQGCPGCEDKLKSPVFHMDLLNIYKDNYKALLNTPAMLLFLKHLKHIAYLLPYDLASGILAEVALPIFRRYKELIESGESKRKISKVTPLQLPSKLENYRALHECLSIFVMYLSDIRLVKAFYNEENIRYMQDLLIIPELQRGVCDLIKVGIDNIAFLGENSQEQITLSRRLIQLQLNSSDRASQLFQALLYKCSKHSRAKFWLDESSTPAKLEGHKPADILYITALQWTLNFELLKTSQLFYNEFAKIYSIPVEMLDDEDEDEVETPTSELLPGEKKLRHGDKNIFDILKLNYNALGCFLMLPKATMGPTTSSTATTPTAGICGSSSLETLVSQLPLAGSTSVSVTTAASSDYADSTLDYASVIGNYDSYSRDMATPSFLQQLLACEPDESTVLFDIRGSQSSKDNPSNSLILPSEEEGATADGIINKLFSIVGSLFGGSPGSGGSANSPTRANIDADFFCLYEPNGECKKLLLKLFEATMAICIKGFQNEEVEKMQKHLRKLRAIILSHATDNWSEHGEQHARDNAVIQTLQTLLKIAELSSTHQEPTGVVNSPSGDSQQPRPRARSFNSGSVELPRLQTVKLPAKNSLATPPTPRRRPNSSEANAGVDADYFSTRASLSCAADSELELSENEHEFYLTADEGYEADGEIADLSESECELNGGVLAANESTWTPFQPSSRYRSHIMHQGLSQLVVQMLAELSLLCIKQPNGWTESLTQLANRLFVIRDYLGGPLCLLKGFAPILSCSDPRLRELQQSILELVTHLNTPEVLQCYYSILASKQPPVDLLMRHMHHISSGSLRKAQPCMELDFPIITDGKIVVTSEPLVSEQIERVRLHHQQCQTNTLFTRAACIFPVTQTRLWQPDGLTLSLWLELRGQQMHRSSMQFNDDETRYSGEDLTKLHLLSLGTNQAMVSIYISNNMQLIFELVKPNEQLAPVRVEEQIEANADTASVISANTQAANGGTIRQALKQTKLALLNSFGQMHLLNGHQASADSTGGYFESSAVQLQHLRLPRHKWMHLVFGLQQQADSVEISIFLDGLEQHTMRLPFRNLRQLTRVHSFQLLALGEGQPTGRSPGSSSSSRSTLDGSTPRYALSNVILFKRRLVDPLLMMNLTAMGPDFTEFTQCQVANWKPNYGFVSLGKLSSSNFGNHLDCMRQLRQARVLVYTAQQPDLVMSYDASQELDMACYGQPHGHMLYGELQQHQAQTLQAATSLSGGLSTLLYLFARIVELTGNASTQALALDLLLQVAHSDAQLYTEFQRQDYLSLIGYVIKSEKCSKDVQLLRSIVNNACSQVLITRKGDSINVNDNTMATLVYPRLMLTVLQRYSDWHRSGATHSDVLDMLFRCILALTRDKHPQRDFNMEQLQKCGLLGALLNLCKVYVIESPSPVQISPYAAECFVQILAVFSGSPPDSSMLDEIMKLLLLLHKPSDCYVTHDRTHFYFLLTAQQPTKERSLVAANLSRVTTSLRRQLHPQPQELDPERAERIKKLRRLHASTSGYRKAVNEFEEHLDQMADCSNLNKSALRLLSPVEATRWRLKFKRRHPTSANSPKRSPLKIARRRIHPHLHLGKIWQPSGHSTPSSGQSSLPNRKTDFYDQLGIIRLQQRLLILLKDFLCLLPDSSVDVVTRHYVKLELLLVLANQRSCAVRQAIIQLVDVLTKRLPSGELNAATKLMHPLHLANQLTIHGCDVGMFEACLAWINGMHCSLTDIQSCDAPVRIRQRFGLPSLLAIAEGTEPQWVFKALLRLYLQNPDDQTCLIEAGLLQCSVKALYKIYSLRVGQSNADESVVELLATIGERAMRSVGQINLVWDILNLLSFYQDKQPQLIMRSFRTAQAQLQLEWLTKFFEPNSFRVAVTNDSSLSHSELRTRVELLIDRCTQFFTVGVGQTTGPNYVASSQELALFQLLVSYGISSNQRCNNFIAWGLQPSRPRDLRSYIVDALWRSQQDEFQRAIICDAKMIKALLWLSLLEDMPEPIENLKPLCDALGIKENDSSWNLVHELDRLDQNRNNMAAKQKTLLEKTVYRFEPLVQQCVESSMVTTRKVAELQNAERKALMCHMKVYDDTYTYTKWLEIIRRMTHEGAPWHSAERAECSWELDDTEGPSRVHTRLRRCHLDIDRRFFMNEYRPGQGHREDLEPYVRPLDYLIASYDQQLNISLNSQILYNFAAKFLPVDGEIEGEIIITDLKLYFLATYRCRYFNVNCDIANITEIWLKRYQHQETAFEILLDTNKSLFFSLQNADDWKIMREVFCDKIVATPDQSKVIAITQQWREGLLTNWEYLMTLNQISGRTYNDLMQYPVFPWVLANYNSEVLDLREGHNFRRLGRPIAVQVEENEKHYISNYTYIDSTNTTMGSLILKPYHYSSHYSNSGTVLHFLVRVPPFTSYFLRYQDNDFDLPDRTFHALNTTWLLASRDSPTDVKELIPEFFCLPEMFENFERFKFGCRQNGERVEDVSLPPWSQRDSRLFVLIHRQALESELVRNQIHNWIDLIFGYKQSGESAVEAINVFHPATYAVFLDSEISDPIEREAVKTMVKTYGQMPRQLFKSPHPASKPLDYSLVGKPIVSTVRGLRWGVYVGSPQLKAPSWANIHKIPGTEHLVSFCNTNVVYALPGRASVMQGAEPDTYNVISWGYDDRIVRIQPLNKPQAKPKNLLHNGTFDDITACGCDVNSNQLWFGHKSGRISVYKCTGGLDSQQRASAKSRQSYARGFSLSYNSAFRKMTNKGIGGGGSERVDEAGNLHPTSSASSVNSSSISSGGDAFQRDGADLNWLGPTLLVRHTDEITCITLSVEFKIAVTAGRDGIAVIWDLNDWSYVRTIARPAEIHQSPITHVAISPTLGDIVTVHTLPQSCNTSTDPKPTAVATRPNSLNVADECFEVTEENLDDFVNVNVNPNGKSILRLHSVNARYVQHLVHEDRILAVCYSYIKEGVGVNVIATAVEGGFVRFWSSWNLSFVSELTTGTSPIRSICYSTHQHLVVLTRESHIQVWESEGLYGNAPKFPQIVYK

B1: p115, the binding partner of GM130 (protein, UniProt Q9W3N6 1-836)
chain: MEFLKSGIKTVLGSTEPGQQPSAAETVEKLVDRVYSSTLLEDRRDACRALKALSRKYRIEVGAQGMPPLVQVLQNDGQDAEIISYALDTLCNVVTSEEFDEEADNPTVSVNVGEQFTEMFIKTPEHVTLVMGYLDEYDFRVRRAAIQLITSLISNKTRELQDLILVSPMGVSKLMDLLTDSREVIRNDVLLLLIELTKGNSNIQKIVAFENAFDRLFEIVREEGCSDGGIVVEDCLILLLNLLKNNSSNQQFFKEGSYIQRLSPMFELSQDAEEVGWSPQKVSNFHCLLQVVRALVTPSNQQQVVAACQRVMQKSRLLHALCEILMSSGVPADILTETINAVAEVVRGDRDNQDELGRVMAPSSPPRPAIVVLLMSMINEKQLLALRCAVLYCFECFLYRNADGQRAVVQTLLPSSASDVSALSTGQLLCTGLFSTDALANWFSAVALMHSLVENVALKEELLRVLLATPGGQKPITLLEQCTNLMQQERYRLQSKVGLLMLLSLWLAHCPGAVKALLETQGTMAYLTAQLCSNEHDEREFLVQGMCAFLMGLCIQFNDNSLPGQKREDISQLIIKRIGQESFCSKLAEVSRHEAYSRACKQAQIRAKSAGELLLDFEYCKLYKGLEALIAKLVSGFDVDGIELTELTLSSEASALVSQYKGIIRGMDAQIQALQQSSKELEQENAELKEKLGEEQSLKAQLLDQNTLLKAQLGASTGQVQSAQGAEATPPNEEELNAARYQANMYFAENIRLTKELETLRQQLSAEKQSADAAQDSLAAMQKDQEDLLELLADQEAKLTRYEEAGSTNTLPTSNVAPSVPAAGGGSPIPSGTASR
B2: Vps41 (protein, UniProt Q7PL76 1-841)
chain: MAKALPLISCDSWADSINEEDVEPKFKYHRLANDLKYMLNADVITCSAVHLKFLIFGTFRGRVCIFDHQGNSVYSNLSASERHTHQVAVNNIDVDHKGEYVATCSDDGKVNITGLFSSDNNHSLSFGKFIKVVSLEPDSKAHIKRFVVGDDKLILYERNLLKKLKPVELCSVEGSVLSICWHGNFIAWASHIGVRVYDLNERCSLGLIKWEVPPQERLENFRCHLRWSNKHTLLIGWVDTIRVCVIRKRNSIEASTGNLPVYIVDPISTFQTTFYVCGLAPLSAKQLVVLGFRKEKSSCFKALRPVLCVIEYKMNNSEEICTDSLTLRGFEEYTVNDYSLGGIIEENRFYIVAPKDIVVASLIETDDRIEWLIKHSKFEEAMELISANGGNVPVLSVAKLYINHLLALKKYDDAAKLCLRMLGNDKVLWEEEVFKFVKCQQLRSVSAYLPTSDECKLDPHVYEMVLYEFLKFDVCGFLNLIKEWPSHLYDGLAVINAIHDNFRKHYANQLLESLALLYSYQGDFESALRMYLKLQNKDVFQLIRRYELYDVISKLIIPLIQLDRDCAFEILLDKKKIKTEIVVHQLEHNQEYLYWYLDSLLKKDPSNVFQKKLISLYAIFDRNKLLPFLKRSKDYDIQEALVICKQENFYPEIVYLLGCMGGVEASEALNIIIHRIRDIEMAIEFCKEHDDSDLWNALINEFSKHPEIVTKVLDGIVDYFSPAVVVGKIKMGQNIPNLRQSLIKMLRHYNLQGEILSSAQQIQLNDYFEIHSEIVTTQRRGQQVSYEQLCSLCHRPVLMAGTHLYCIIRLECGHVYHKPCIQGELLKNCNECNLWKLTVGK
B3: BicaudalD (protein, UniProt P16568 1-782)
chain: MSSASNNGPSADQSVQDLQMEVERLTRELDQVSSASAQSAQYGLSLLEEKSALQQKCEELETLYDNTRHELDITQEALTKFQTSQKVTNKTGIEQEDALLNESAARETSLNLQIFDLENELKQLRHELERVRNERDRMLQENSDFGRDKSDSEADRLRLKSELKDLKFRETRMLSEYSELEEENISLQKQVSSLRSSQVEFEGAKHEIRRLTEEVELLNQQVDELANLKKIAEKQMEEALETLQGEREAKYALKKELDGHLNRESMYHISNLAYSIRSNMEDNASNNSDGEEENLALKRLEADLSTELKSPDGTKCDLFSEIHLNELKKLEKQLESMESEKTHLTANLREAQTSLDKSQNELQNFMSRLALLAAHVDALVQLKKQIDVKEQGKEGGQKKDELEQQLRALISQYANWFTLSAKEIDGLKTDIAELQKGLNYTDATTTLRNEVTNLKNKLLATEQKSLDLQSDVQTLTHISQNAGQSLGSARSTLVALSDDLAQLYHLVCTVNGETPTRVLLDHKTDDMSFENDSLTAIQSQFKSDVFIAKPQIVEDLQGLADSVEIKKYVDTVSDQIKYLKTAVEHTIDMNKHKIRSEGGDALEKVNTEEMEELQEQIVKLKSLLSVKREQIGTLRNVLKSNKQTAEVALTNLKSKYENEKIIVSDTMSKLRNELRLLKEDAATFSSLRAMFAARCEEYVTQVDDLNRQLEAAEEEKKTLNQLLRLAVQQKLALTQRLEEMEMDREMRHVRRPMPAQRGTSGKSSFSTRPSSRNPASSNANPF

What was measured:
[1] = target: GST-Rab2(Q65L), GTP-locked Drosophila Rab2 (Drosophila melanogaster) (UniProt O18333); experiment: affinity purification with mass spectrometry; GST-Rab (Q→L, GTP-locked) on glutathione Sepharose; lysates of Drosophila S2 cells; eluates on SDS gels, tandem MS; hits told for both data sets (CHAPS lysis and detergent-free lysis) or without saying which data set; only the target purified
[2] = target: GST-Rab2(Q65L), GTP-locked Drosophila Rab2 (Drosophila melanogaster) (UniProt O18333); experiment: as above; remark: listed apart in the source
[3] = target: GST-Rab2(Q65L), GTP-locked Drosophila Rab2 (Drosophila melanogaster) (UniProt O18333); experiment: affinity purification with mass spectrometry; GST-Rab (Q→L, GTP-locked) on glutathione Sepharose; S2 cells lysed in the detergent CHAPS; gel lanes above the GST-Rab (∼45–50 kDa) analysed; only the target purified

Molecule | binding [2] | other results
Mauve (CG42863), BEACH-domain family member (from UniProt Q9W060 1-3535) | – | binding [1]: binds
B1 | binds | –
B2 | – | binding [3]: binds
B3 | binds | –

These are yes or no findings as the source states them, for the method shown. Binding seen in cells or lysates may run through a third protein. A yes stands for co-enrichment or nearness to the bait. Other partners may have been found.
